# Assay results published in the supplement of paper PMC12764529.
# ± gives the half width of the 95% confidence interval. The two proteases of the assay disagree for many of these sequences.
# What was measured:
# [1] = folding stability dG unfold (combined trypsin and chymotrypsin); higher = more stable
# Description: (§1)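 Folding stability of de novo designed mini-proteins (<80 aa, no Cys; designed by TrROS, TrMRF, ProteinMPNN and the joint model) was measured by cDNA display proteolysis with trypsin and chymotrypsin. Each protease was used at 11 concentrations in a threefold dilution series plus a no-protease condition. K50 was inferred by Bayesian fitting of sequencing counts, and dG unfold was derived against a sequence-predicted unfolded-state K50 (Tsuboyama et al. method). Sequences shown include variable-length N-terminal GS-type padding (SAGGSAGG...) inside a display construct carrying a PA tag. Rows were kept only if the AF2 dimer inter-PAE was >15, to exclude likely homo-oligomers.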
# [2] = folding stability dG unfold from chymotrypsin proteolysis; higher = more stable
# Description: as §1
Sequence,folding stability dG unfold [1] [kcal/mol],folding stability dG unfold [2] [kcal/mol]
SAAAPEAAAAAVTAAIAALAAARGLDVDVVVTASAEADGSVTITVDLSSPEVRAAFLAALPPDVDLALASAG [r14_491_JUSTAS],1.28 ± 0.084,1.79 ± 0.054
SAGGSAGGSAGGLPPNPSYLLLPVDEGTTADEIREEVERLVEPDNVVVLTRPDGYALVFFSAGGSAGGSAGG [r7_273_TrMRF],1 ± 0.17,1.59 ± 0.15
SAGGSAGGMARRRVTPEELARAVPPGQLALLYLPRSGRWAVVPPGVLEDLFAPEDDVLVELAPLSAGGSAGG [r6_893_TrMRF],0.858 ± 0.15,1.53 ± 0.29
SAGGSAGGNDEDLPRPPSWVTVETETKKKVFNEDGTFLGDATVKSTVVTDPATGTTLATTEFLPSAGGSAGG [r6_962_JUSTAS],0.557 ± 0.23,1.04 ± 0.05
SAGGSAGGGASTRRTITVPYEDPEEAFEKVKEEVKAETGKPTEVTLTEIDPNNPGVITVEVTVSSAGGSAGG [r6_211_JUSTAS],0.351 ± 0.07,0.938 ± 0.019
SAGGSAGGSAGGMDTPLEEAAARHPPDGTLNYQDPESGRTVSITRPPETGELAPTVTASSAGGSAGGSAGGS [r10_777_JUSTAS],0.384 ± 0.064,1.07 ± 0.015
SAMIVVPNPLSDTPIEIPVDPNASPEEARALIEANPLVPPENLEYAEEALRRYYALLADPALAAAAAAASAG [r14_732_JUSTAS],0.96 ± 0.077,1.59 ± 0.091
SAGGAPPVLPAGQLELLDFRVEPRPDGGYRAVLLARVRLPGTGRTVLLLLVSEFPPDGPPRTALGVFPSAGG [r13_263_TrMRF],3.99 ± 0.088,4.38 ± 0.059
SGMETKTIEKTVTVPAGDPAALEAAAAAVKEEIEKELKEKGYEVLEVKVTATATPDDTVTVTVPITVKKKSA [r9_298_JUSTAS],0.607 ± 0.28,1.3 ± 0.043
SGPTATINPEVPGPVPGGEVIPATVEIDVPPDKIDEVVDRIAKEAGIPDLKVGKIEPTKDGKVKIVVERKSA [r9_1101_TrMRF],0.626 ± 0.27,1.32 ± 0.1
SASLVEEIIAEAEKKEAESGKKVPVTVTLPLTSEPSGPVLSEEEVERVVEEIKKALPDMPITVVLEPPGSAG [r14_636_JUSTAS],1.04 ± 0.11,1.56 ± 0.1
SAGGGAGTATLTVPVTFELEFFDADGRPVGPARLTLTLRLTAPVPLPPVPPPRLDLVLPDRFNPADDLSAGG [r13_508_TrMRF],2.99 ± 0.087,3.544 ± 0.026
SAGGSAGGSAGGSSSVSVDTDPETGLITVTTYSSSGGVTVTLYEKPPDGSLTPVSTTAVSAGGSAGGSAGGS [r4_106_JUSTAS],1.01 ± 0.046,0.844 ± 0.07
SAGGSAGGSAGMLSVTELSTEEKGSLVTTTTRATVGSTTVTTTTTTFVPRSTALLNPDRGSAGGSAGGSAGG [r11_213_JUSTAS],-0.0509 ± 0.48,0.55 ± 0.089
SMRPDETALVRFEFELPFPPERPEEAVEAVRRLVDALLAARGYEADVPVAVEPFGDRLRVLVPVALRPRASA [r9_889_TrMRF],1.64 ± 0.12,2.12 ± 0.054
SAGGSTVTVTVRRRVRVEVNGELREFEVEVTVTVRLPPPPPVIELPPEQVTRIEWDEETQELRVEVDSAGGS [r8_28_TrROS_Hall],3.28 ± 0.21,3.33 ± 0.063
SAGGSATLPPSFRPVEVEEKPTGGNESTEQRVVIERRRPDGTPVREELTATTTYDPSTGTTTTTVSSAGGSA [r15_1052_JUSTAS],1.01 ± 0.08,1.5 ± 0.017
SAGKKKPEKIEIEIEIEINGKKYKVKLEVEKIGNKYVVKMEITNKNGEKFKIEAVFDVKTGKLTLKIYPSAG [r5_316_TrROS_Hall],3.18 ± 0.5,3.68 ± 0.21
SSPSAPPVVRTETTTSEVVEKPGGVREKVTTPVTTTTLPDGTVTTTENVTTTFPDGSTTTSTSTSTDPAASA [r9_1201_JUSTAS],1.51 ± 0.11,2.03 ± 0.12
SAGGSMSLDPDPAVRADPAFAGATVRRTTEPTPSGEVRVVETPVAVPAPVLTPEARAAALAAAAANAASAGG [r19_313_JUSTAS],0.8 ± 0.065,1.31 ± 0.033
SAGGSAGGVLVPAEAIRRAFPDFVVEVRPRRVRRVRPDPLRPGVPVFEERVVPVLDLRRREDLFSAGGSAGG [r6_659_TrMRF],0.451 ± 0.077,1.02 ± 0.082

# Pulled one by one from above (two):
Sequence,folding stability dG unfold [1] [kcal/mol],folding stability dG unfold [2] [kcal/mol]
SAGGSATLPPSFRPVEVEEKPTGGNESTEQRVVIERRRPDGTPVREELTATTTYDPSTGTTTTTVSSAGGSA [r15_1052_JUSTAS],1.01 ± 0.08,1.5 ± 0.017
SAGGSAGGGASTRRTITVPYEDPEEAFEKVKEEVKAETGKPTEVTLTEIDPNNPGVITVEVTVSSAGGSAGG [r6_211_JUSTAS],0.351 ± 0.07,0.938 ± 0.019
